Our source for the binding values is US20190203210A1.

Protein sequences, listed by entry. Tags and fused reporters are not part of them.
UniProt Q7Z6Z7: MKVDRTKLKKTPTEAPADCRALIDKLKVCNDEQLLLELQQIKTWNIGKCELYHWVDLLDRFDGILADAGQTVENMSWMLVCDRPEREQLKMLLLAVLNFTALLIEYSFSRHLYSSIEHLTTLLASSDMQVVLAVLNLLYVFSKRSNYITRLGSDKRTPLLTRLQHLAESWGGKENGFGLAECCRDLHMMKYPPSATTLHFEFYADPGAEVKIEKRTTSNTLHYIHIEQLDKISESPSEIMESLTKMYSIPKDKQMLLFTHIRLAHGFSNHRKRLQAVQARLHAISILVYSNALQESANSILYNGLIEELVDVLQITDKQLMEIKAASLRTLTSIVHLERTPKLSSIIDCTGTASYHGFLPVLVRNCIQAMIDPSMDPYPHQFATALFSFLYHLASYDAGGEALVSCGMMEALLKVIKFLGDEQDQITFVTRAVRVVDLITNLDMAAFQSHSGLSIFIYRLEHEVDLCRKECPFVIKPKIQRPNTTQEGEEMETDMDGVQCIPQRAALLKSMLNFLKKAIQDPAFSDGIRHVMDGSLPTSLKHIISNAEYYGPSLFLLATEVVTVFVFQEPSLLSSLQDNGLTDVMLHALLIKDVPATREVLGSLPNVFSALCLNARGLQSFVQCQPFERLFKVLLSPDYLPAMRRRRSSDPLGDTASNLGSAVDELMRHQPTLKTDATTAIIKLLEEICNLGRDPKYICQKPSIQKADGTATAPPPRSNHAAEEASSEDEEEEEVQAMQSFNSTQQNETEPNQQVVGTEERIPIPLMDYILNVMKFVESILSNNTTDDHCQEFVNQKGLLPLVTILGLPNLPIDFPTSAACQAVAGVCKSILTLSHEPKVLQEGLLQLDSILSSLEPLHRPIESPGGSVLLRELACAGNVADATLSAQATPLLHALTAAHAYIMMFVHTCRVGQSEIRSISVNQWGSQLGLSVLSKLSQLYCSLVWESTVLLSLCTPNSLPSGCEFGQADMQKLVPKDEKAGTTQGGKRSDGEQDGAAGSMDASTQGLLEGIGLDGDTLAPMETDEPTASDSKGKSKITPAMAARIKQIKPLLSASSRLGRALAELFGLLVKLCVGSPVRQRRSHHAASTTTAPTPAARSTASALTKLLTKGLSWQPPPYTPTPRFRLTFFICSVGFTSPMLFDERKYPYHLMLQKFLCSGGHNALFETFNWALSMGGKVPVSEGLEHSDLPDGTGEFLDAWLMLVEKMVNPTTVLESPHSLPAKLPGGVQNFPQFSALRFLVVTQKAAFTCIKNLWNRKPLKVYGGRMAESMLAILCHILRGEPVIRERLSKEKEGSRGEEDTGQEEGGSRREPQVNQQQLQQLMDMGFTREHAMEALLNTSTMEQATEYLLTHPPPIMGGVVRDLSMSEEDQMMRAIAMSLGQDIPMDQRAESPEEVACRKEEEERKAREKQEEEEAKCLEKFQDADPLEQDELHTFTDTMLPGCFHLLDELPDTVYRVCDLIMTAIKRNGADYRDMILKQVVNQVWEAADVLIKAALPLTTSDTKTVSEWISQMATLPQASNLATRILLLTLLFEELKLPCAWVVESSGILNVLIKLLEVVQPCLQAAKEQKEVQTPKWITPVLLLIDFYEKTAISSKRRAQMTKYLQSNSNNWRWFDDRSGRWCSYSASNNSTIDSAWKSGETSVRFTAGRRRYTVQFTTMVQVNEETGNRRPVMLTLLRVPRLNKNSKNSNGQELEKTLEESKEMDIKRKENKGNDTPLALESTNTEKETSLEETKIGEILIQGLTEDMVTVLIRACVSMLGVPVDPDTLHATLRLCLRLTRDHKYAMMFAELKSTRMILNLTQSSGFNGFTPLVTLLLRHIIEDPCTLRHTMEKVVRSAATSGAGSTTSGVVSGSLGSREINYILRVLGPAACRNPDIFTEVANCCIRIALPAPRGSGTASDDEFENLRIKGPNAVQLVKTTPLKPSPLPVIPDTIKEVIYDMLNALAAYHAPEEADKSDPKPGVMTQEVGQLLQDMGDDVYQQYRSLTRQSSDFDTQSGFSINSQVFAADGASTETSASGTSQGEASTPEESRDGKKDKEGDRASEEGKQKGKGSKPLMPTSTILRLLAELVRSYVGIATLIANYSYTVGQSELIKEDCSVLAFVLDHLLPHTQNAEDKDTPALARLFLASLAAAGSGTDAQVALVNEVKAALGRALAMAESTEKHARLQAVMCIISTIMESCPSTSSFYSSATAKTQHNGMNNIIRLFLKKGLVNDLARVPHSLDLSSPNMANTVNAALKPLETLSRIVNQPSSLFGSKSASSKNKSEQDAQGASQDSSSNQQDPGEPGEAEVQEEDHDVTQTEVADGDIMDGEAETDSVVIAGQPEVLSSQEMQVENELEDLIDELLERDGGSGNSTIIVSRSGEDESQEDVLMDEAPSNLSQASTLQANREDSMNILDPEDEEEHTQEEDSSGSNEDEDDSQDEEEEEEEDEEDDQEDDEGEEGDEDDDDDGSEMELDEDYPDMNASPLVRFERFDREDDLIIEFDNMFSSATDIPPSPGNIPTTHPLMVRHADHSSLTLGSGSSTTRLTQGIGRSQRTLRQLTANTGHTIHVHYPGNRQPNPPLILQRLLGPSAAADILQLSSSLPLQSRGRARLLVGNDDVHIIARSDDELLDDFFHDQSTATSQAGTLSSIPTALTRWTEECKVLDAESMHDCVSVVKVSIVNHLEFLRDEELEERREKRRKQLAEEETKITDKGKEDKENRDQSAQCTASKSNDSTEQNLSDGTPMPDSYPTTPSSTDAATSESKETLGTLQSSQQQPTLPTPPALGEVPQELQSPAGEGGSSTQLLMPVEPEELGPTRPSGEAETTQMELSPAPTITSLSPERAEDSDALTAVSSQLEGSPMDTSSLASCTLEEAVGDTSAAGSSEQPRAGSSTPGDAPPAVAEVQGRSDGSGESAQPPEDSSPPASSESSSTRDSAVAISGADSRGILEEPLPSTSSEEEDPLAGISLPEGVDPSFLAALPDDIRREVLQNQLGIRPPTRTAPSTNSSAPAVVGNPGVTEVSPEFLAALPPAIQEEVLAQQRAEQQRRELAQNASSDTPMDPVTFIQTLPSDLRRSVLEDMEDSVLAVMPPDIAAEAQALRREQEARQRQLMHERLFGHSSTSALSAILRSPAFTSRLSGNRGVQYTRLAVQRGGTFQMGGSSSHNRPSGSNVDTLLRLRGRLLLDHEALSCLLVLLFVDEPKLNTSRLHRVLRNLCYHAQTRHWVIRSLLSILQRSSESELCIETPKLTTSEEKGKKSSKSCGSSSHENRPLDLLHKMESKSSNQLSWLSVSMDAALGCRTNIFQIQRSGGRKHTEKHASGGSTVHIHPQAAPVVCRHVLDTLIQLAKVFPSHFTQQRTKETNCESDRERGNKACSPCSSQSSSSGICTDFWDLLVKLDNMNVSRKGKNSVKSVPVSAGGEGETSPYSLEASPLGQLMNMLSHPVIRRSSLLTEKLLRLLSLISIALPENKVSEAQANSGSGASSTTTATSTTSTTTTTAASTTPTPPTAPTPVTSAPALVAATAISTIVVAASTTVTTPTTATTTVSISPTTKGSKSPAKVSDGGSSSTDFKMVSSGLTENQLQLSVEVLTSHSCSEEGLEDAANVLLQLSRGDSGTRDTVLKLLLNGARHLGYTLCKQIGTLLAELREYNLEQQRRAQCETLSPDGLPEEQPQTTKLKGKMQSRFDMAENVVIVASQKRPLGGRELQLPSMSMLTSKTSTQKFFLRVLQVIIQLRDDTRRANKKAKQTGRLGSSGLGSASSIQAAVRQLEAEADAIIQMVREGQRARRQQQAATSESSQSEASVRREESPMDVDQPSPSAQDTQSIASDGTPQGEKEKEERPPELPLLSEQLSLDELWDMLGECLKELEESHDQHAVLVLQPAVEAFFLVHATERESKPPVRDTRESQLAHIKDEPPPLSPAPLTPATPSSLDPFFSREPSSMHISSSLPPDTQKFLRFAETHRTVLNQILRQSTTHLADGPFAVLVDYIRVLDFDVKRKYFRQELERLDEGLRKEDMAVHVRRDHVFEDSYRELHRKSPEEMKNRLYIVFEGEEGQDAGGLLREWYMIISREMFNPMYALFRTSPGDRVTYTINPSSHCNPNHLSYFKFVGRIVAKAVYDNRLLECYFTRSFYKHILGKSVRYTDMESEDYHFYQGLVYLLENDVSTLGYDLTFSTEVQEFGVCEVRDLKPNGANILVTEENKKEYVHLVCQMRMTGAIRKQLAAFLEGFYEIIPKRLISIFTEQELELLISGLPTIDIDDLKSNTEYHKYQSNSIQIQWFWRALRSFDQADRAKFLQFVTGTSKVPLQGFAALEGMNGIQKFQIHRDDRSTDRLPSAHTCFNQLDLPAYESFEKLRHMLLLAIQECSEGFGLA

The experiment deals with T1, FLAG-HA-Atoh1 (UniProt Q92858).
T1 sequence (looked up): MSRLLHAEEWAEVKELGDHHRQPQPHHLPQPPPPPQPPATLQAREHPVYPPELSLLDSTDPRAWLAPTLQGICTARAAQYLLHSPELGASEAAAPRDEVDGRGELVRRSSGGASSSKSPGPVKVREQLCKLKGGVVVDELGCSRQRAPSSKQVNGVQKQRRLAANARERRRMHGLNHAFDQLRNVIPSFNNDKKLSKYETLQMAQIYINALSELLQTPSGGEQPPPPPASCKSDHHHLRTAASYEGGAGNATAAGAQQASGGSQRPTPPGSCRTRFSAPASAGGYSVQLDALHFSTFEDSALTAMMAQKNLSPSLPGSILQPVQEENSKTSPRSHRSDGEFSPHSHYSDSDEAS
Kind of experiment: IP, gel band at 450 kDa, mass spectrometry.

No constants are given. Whether binding was seen depends on the method and setting. Binding seen in cells or lysates may run through a third protein. A yes stands for co-enrichment or nearness to the bait. Other partners may have been found. Where a sequence is shown, tags or fusion partners need not be part of it.

In the case of “HECT, UBA and WWE domain containing 1 (Huwe1) protein (from UniProt Q7Z6Z7 1-4374) (enzyme)”, the binding entry is recorded as “binds”.
